Reference: PMC8406326
Results are given in words; binding and its absence hold for the method and conditions named. In cells and extracts the contact can be indirect. Some entries that bind do so weakly or less than the wild type. For part of these data: Tags and fused reporters may be left off the sequences shown.

Chains of the proteins cited; added tags and fusions are not shown.
UniProt O08573: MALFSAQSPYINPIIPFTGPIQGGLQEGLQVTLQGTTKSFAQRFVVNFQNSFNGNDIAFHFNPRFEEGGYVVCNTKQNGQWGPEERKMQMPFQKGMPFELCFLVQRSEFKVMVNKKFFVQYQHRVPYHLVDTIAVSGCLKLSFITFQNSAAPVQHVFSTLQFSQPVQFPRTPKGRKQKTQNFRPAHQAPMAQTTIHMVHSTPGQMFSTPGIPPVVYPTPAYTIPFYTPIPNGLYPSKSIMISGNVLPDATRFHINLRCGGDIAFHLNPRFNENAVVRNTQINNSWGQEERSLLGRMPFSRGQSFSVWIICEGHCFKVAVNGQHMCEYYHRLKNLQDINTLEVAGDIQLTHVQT
UniProt P16110: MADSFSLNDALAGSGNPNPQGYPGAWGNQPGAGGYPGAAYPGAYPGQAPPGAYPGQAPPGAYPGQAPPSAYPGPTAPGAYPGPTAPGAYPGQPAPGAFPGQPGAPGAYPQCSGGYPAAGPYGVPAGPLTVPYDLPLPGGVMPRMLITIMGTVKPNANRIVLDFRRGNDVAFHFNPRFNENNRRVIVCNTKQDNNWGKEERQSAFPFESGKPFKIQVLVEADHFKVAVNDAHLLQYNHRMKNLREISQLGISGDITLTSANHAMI
UniProt Q8K3K8: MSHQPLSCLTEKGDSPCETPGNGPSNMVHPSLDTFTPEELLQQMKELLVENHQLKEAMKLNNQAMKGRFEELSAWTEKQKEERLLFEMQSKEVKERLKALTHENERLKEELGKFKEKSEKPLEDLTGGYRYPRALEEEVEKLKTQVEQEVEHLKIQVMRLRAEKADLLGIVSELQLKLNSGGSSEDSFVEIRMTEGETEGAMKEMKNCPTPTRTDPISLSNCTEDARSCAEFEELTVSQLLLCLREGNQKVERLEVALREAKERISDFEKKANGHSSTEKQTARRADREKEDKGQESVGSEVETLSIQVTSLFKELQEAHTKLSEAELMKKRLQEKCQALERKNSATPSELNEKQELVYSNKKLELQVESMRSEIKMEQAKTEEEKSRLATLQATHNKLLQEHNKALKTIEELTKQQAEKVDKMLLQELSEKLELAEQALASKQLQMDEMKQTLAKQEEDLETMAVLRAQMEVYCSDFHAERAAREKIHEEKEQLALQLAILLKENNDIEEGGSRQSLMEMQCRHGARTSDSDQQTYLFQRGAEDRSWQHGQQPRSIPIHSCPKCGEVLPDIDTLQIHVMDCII
UniProt O00560: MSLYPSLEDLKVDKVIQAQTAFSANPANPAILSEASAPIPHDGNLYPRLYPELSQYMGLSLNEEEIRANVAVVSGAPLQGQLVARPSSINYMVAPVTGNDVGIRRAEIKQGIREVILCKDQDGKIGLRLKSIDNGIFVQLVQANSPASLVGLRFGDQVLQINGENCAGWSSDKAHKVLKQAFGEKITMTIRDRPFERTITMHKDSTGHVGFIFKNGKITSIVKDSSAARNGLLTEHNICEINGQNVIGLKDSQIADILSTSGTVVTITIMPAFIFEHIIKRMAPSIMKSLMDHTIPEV

How the values were obtained:
[1] = molecular target: 3×FLAG-galectin-9 (not stated (human or mouse cDNA cloned)) (UniProt O08573); assay: co-IP; directed co-IP: 3×FLAG-galectin and HA-tagged adapter (or TAX1BP1 truncation) coexpressed in HEK293T cells; IP of FL-galectin-8 and blot for HA in Fig. 5B, C, F (direction not told for Fig. 4E); lysis buffer 150 mM Tris pH 7.5, 50 mM NaCl, 1 mM EDTA, 0.075% NP-40; 4°C
[2] = molecular target: 3×FLAG-galectin-3 (not stated (human or mouse cDNA cloned)) (UniProt P16110); assay: co-IP; 3×FLAG-galectins ectopically expressed in HEK293T cells, immunoprecipitated; co-IPs probed for endogenous syntenin-1 and TAX1BP1; lysis buffer 150 mM Tris pH 7.5, 50 mM NaCl, 1 mM EDTA, 0.075% NP-40; 4°C
[3] = molecular target: T1, mouse 3×FLAG–galectin-8 (ectopically expressed in HEK293T cells) (mouse) (UniProt Q9JL15); assay: as above
T1 sequence: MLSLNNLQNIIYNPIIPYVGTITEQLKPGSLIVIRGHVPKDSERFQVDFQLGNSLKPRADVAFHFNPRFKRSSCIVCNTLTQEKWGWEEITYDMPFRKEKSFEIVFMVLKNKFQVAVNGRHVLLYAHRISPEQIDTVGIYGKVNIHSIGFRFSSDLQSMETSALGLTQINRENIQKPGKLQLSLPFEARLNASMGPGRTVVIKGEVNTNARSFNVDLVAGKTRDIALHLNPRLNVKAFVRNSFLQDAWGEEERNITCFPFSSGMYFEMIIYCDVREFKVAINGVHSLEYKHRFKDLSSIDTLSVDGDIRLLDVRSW

binding [1]	binding [2]	binding [3]	Substance
binds	–	–	HA-optineurin (from UniProt Q8K3K8 1-584)
–	binds	binds	endogenous syntenin-1 (HEK293T cells) (from UniProt O00560 1-298)
